Results taken from patent publication US20200262922A1.
No constants are given. Whether binding was seen depends on the method and setting. Some results given as binding are weak or reduced against the parent protein; the word gives no strength.

Sequences of proteins named here, by UniProt entry; tags and fusion partners are left off. Residues count along the entry.
UniProt P16410, residues 36-161: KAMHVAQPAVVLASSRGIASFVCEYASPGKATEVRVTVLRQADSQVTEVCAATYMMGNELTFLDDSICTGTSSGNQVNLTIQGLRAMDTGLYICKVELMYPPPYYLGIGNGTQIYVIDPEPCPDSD

Molecular target: CTLA4 (cytotoxic T lymphocyte associated antigen 4), antigen of the binding ELISA (UniProt P16410)
Assay: binding ELISA potency of stored formulation samples

B1: anti-CTLA4 antibody (CDRs of SEQ ID NO: 35-40 on an IgG1 backbone; VH SEQ ID NO: 88, VL SEQ ID NO: 48) (antibody, V domains shown)
VH: EVQLVESGGGLVQPGGSLRLSCAASGFTFSDNWMNWVRQAPGKGLEWLAQIRNKPYNYETYYSASVKGRFTISRDDSKNSVYLQMNSLKTEDTGVYYCTAQFAYWGQGTLVTVSS
VL: DIQMTQSPSSLSASVGDRVTITCRTSENIYGGLNWYQRKPGKSPKLLIYGATNLASGVSSRFSGSGSGTDYTLTISSLQPEDVATYYCQNVLRSPFTFGSGTKLEIK
  binding: binds
